# The full ranking holds about 33,000 sequences; the median of “E-score (-0.5 to 0.5)” is about -0.0034, and the highest 2% start at about 0.25. Some of the results follow.
# Target: T1, Yap3 (UniProt P38749)
# T1 sequence: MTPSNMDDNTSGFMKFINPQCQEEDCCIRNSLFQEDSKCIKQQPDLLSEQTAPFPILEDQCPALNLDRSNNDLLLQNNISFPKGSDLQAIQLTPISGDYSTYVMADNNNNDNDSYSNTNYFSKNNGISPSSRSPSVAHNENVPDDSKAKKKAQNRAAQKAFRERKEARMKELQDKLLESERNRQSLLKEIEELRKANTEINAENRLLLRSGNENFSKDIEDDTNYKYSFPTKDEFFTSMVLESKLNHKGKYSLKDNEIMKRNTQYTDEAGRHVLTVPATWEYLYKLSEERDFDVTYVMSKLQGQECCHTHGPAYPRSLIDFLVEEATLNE
# Assay: PBM E-score (8-mer binding enrichment) (E-score (-0.5 to 0.5)); higher = stronger / more preferred TF binding
# Conditions: protein concentration: 100 nM; construct: GST-full length
# Summary of the method: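 Yeast transcription factors carrying a GST tag, as full-length proteins or DNA-binding domains, were produced by PURExpress in vitro transcription/translation. About 100-200 nM protein was applied to universal all-10-mer Agilent arrays, double-stranded by primer extension on fresh or once-stripped slides. Bound protein was detected with fluorescent anti-GST, and scans were normalised with masliner. The Universal PBM Analysis Suite gave each ungapped eight-base word, pooled with its reverse complement, an E-score, a modified Wilcoxon-Mann-Whitney statistic.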
row,Sequence,PBM E-score
1,ACAAGCCT,-0.0702
2,AGGTATAT,0.212
3,TAGTGACA,0.162
4,GGTAGCTA,-0.179
5,AGATAAGG,-0.0911
6,ATTGTCAG,0.131
7,AGCGACCC,-0.303
8,AGGGGATC,-0.167
9,GTCTGCAA,-0.0254
10,ACCTCAGC,-0.0506
11,ATTAGCTC,-0.00222
12,CCGCACCG,-0.101
13,ATAACCTA,0.112
14,CTTGCCGA,-0.092
15,GGGGCGCA,-0.228
16,ACACGCTC,0.00032
17,CAGACTCG,-0.126
18,ATCTAGCC,-0.0943
19,ACATTGAA,0.173
20,GGGCCTGA,-0.275
21,CACTCGCC,-0.00819
22,AGCCTACA,-0.0329
23,ACCGTGAA,0.00275
24,AGGGCATG,-0.178
25,CGTACAGA,0.0498

row,Sequence,PBM E-score
1,GACGAATA,0.163
2,AATATGAG,0.0655
3,ATCTTCAA,0.116
4,AAGGAATG,0.0437
5,ACAGGTGC,-0.162
6,ACTGATGG,-0.173
7,AGTGCCAG,-0.24
8,ACGTAGTA,-0.0131
9,ACGGGCGA,-0.249
10,CAACAGCC,-0.0309
11,CCGGTACA,-0.0509
12,ATGTCATC,0.0326
13,CACGAAGA,0.201
14,ATTACGGA,0.295
15,GGAAAAGA,-0.0533
16,AGGATCTA,-0.236
17,GATGTAAA,0.189
18,TCGTAACA,0.123
19,AATCCCGT,0.183
20,GGCCGCAC,-0.16
21,ATGGAACA,0.0389
22,AGGGAAAC,-0.125
23,TATGATCA,0.202
24,GATCCGAA,0.213
25,AGAGGTAA,-0.0121

# 3 entries from above, set out differently:
row	Sequence	PBM E-score
1	GACGAATA	0.163
2	AATATGAG	0.0655
3	ATCTTCAA	0.116

# Continued:

row,Sequence,PBM E-score
1,CCCTTAGC,-0.14
2,CGTTAAAC,0.174
3,CACTAAAA,0.237
4,AACGAAGA,0.107
5,GGCCGAAA,-0.0138
6,CTCCTTGC,-0.121
7,AGAATGGG,-0.0646
8,CCTATGGC,-0.128
9,AAACGGTC,-0.0399
10,ACTCAGGA,-0.111
11,GCCGCGCA,-0.149
12,GCGGTAAC,0.0126
13,AAGATCGG,-0.143
14,AAAACGTG,0.141
15,CTCACTGA,-0.0204
16,CACCGGCC,-0.414
17,GGGCAGAC,-0.272
18,AAAAGTTA,0.195
19,GCGTACGC,-0.192
20,ACTTTCGA,0.0591
21,GGCAGTGA,-0.194
22,CAAAAGAG,0.0429
23,AATCGGCA,0.159
24,CCAGCCCG,-0.258
25,TCTTTCCA,-0.0501

row,Sequence,PBM E-score
1,CCTACAGG,-0.225
2,ATAACAAG,0.228
3,AAAGGTAA,0.0127
4,AATTCAAC,0.153
5,CGATGGAC,-0.0566
6,ATATTTGG,0.197
7,CTCCGGAA,-0.108
8,ACTATCCG,0.164
9,GACTACGC,-0.139
10,AGCGTAAT,0.122
11,ATTTACTC,0.191
12,TAAACCAA,0.0441
13,ACGGGCCG,-0.187
14,AGGATGTG,0.0295
15,TCCAGTCA,-0.168
16,GATTTAGC,0.0449
17,CGGCTGCC,-0.211
18,GACGTCCC,-0.168
19,AGAACATG,0.0504
20,CGGTATCA,0.0719
21,CCAACGGG,-0.0913
22,TGCTTAAA,0.0707
23,GCCCTTCA,-0.186
24,CATGTATC,0.155
25,AGGTCGGA,-0.0278

row,Sequence,PBM E-score
1,AGTAGGGG,0.0208
2,AGTCTTCA,-0.0504
3,AACGAGGC,-0.162
4,AAAGTTGT,0.172
5,ATTATGAG,0.117
6,ATCCACAG,0.00624
7,ATTAGACG,0.104
8,ATTGAATA,0.256
9,CGAACGGC,-0.038
10,GGCTGTGA,-0.0277
11,GAGCAACC,-0.0218
12,GGAGACCC,-0.273
13,GCATGACA,-0.0537
14,ATAGACAT,0.0285
15,CTTCGGCC,-0.0359
16,AACCAAAT,0.128
17,CTGCGTTA,-0.0516
18,GATTGCCA,-0.0247
19,ATTGCGAG,0.0202
20,AATCGACA,0.258
21,ACTCGTCG,-0.00308
22,TATTTTCA,0.168
23,AGCTACCT,-0.111
24,TCTGGGAA,-0.0103
25,GTTCTAGA,-0.0536

# Fetched one by one from above:
row,Sequence,PBM E-score
24,TCTGGGAA,-0.0103
8,ATTGAATA,0.256
22,TATTTTCA,0.168

# Some of the entries so far, tab-delimited:
row	Sequence	PBM E-score
5	ATTATGAG	0.117
6	ATCCACAG	0.00624
7	ATTAGACG	0.104
8	ATTGAATA	0.256
9	CGAACGGC	-0.038

# (listing goes on)

row,Sequence,PBM E-score
1,AGCTTTTG,0.103
2,TCGTCGAA,0.0355
3,CTGCTCCA,-0.0981
4,ATGTCATA,0.129
5,GCCACCAA,0.0305
6,CACACCAA,0.148
7,CGAGCGCG,-0.0148
8,ACTCAGGG,-0.186
9,AGTACAAC,0.0259
10,CACTAGGG,-0.194
11,GGACACAC,-0.135
12,AAGTATAG,-0.00453
13,CAATGCGG,0.0466
14,CCTAGTTC,0.0518
15,CCATGACC,-0.0644
16,AGAGCGTG,-0.128
17,AGCCGCGC,0.0348
18,AGATGCCA,-0.107
19,CCTTCCAG,-0.131
20,GGCCCGCA,-0.18
21,AATGAAGA,0.209
22,CACAAGGG,-0.159
23,AGGTGGCC,-0.23
24,AGTGGGAC,-0.157
25,ATAAGTAG,0.0145

row,Sequence,PBM E-score
1,ACACAGGT,-0.0434
2,CTTATCTA,0.198
3,ATGCGAAA,0.13
4,AATTACGA,0.33
5,CCTTGACG,-0.198
6,GAGTCTTA,-0.139
7,GGTCTCCA,-0.0615
8,AGAGAAAG,0.0709
9,GCTGAAGA,-0.0428
10,AACAGCTG,0.0716
11,AACTGCAC,0.0789
12,TCCCGTAA,0.0557
13,CGACGCAG,-0.0783
14,ATTTGCTC,0.0509
15,AGATTGTG,0.00805
16,CAATCCGG,0.0195
17,ATTGCTCA,-0.00161
18,CAGCTACC,-0.0788
19,AGTACACA,0.201
20,GCTTTCGA,-0.239
21,CACCTAAC,-0.07
22,CTGGTTTA,-0.0783
23,TCTCGACA,-0.0253
24,ATTGTTTC,0.164
25,CCCGAGGA,-0.113

row,Sequence,PBM E-score
1,ATGTCAGG,-0.0733
2,CAACTGTA,0.1
3,CCACTTCG,-0.0637
4,CGTTCCGC,0.015
5,CAAACTAC,0.0901
6,AGCTGCCA,-0.023
7,GCTCCCAC,-0.161
8,ACATAGAA,0.199
9,ATTTTCAA,0.0451
10,CGCAACAG,-0.095
11,CCCACTTA,0.177
12,CCAGATCG,-0.0854
13,ATACCTCA,0.082
14,ATTACAAC,0.11
15,TAAAGGTA,0.0853
16,CTTTGATC,-0.0556
17,CACTAAAG,0.0782
18,AAGACAAA,0.176
19,CAGCGGAC,-0.0637
20,ACTTCCTC,-0.106
21,CAGCCCTG,-0.345
22,CTGGATTC,-0.0754
23,ATACATGG,0.0848
24,CAATCCCA,-0.138
25,CGCTTGAA,0.129

row,Sequence,PBM E-score
1,AAACAATC,0.127
2,ACGTGAGG,0.086
3,ATTAATGA,0.236
4,ATCAGAGG,-0.132
5,CAGAGAAA,0.278
6,ATCGTGTC,0.0422
7,AATTTACG,0.239
8,ACCAGTCG,-0.204
9,AAGTCGGC,-0.0562
10,GAGATGCA,-0.0643
11,ATGCTGGG,-0.209
12,GCTCACAC,-0.0287
13,GGTACGAA,0.185
14,AGGCGAAT,-0.0473
15,CGGTGTTC,0.0352
16,AGGAGGAG,-0.244
17,CTTTGATA,0.189
18,CAAAGCAG,0.0488
19,CAAGATTA,0.0683
